Test results reported in the supplement of paper PMC9578143, “Small-Molecule Ebselen Binds to YTHDF Proteins Interfering with the Recognition of N^6-Methyladenosine-Modified RNAs” (ACS Pharmacology & Translational Science, 2022).
This is one part of the list. Part of the spread comes from offsets between plates or batches.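 Hits were defined as a z-score below −3.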 Positions of bridges follow the written chain, without caps; N, C: chain ends. Non-standard residues stand in square brackets, D forms with d. Residues, ends and D or L forms follow the SMILES beside them. *: point of attachment. Ileψ(thiazoline)Cys = CC[C@H](C)[C@H](N)C1=N[C@H](C(=O)*)CS1; dOrn = NCCC[C@@H](N)C(=O)O

Target: T1, YTHDF1 YTH domain (aa 365-554) (UniProt Q9BYJ9)
T1 sequence (whole entry): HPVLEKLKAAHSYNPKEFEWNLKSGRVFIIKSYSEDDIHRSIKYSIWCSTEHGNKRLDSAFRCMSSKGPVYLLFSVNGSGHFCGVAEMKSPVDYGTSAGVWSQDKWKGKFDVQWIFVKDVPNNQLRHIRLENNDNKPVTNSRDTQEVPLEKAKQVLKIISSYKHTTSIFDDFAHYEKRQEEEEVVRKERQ
Assay: tryptophan fluorescence intensity z-score (mean); higher = higher fluorescence, less quenching (negative = binding / quenching)
Settings: 10 µM

Tryptophan fluorescence intensity z-score, inactive:
COc1ccc2c(c1)OC/C(=C\c1ccc(OC)c(O)c1)C2=O (plate: M 15-16) -0.078
C[C@]1(OC(=O)/C=C/c2ccccc2)C[C@@H](O)[C@]2(O)C=CO[C@@H](O[C@@H]3O[C@H](CO)[C@@H](O)[C@H](O)[C@H]3O)[C@@H]21 (plate: M 19-20) 0.641
COc1ccc2c(=O)c(-c3cc4c(cc3OC)OCO4)coc2c1 (plate: M 15-16) 0.717
C[N+]1(C)[C@@H]2CC[C@H]1C[C@@H](OC(=O)C(O)c1ccccc1)C2 (stereo partly drawn) (plate: M 3-4) -0.382
COc1ccc2c(c1)OC1(O)COc3cc(OC)c(OC)cc3C1=C2 (stereo not drawn) (plate: M 15-16) -0.146
CN(C)CCC(c1ccc(Cl)cc1)c1ccccn1 (stereo in doubt) (plate: M 1-2) 0.167
CC(=O)Nc1ccccc1 (plate: M 7-8) 0.0168
C=CC(C1=CC(=O)C=CC1=O)c1ccccc1 (stereo not drawn) (plate: M 15-16) -0.352
COC(=O)[C@H](OC(C)=O)[C@H]1C(C)(C)[C@H](OC(C)=O)[C@@H]2CC3=C4CC(=O)O[C@@H](c5ccoc5)[C@]4(C)CC[C@@H]3[C@@]1(C)C2=O (plate: M 13-14) 0.287
Cc1cc(C(C)(C)C)c(O)c(C)c1CC1=NCCN1 (plate: M 3-4) 0.245
CN(C)CCCN1c2ccccc2Sc2ccccc21 (plate: M 5-6) -0.404
CC(C)(C(=O)O)c1ccc(C(O)CCCN2CCC(C(O)(c3ccccc3)c3ccccc3)CC2)cc1 (stereo not drawn) (plate: M 9-10) -0.098
COc1c2ccoc2c(OC)c2oc(=O)ccc12 (plate: M 17-18) 0.239
COc1ccc([C@@H]2CC(=O)c3c(O)cc(O[C@@H]4O[C@H](CO[C@@H]5O[C@@H](C)[C@H](O)[C@@H](O)[C@H]5O)[C@@H](O)[C@H](O)[C@H]4O)cc3O2)cc1O (plate: M 17-18) 0.374
CN(C)/N=N/c1[nH]cnc1C(N)=O (plate: M 1-2) -0.329
C[N+](C)(C)CCCCCC[N+](C)(C)C (plate: M 21-22) 0.125
Cc1cc(O)c(C=O)c2c1C(=O)Oc1c(C)c(O)c3c(c1O2)C(O)OC3=O (stereo not drawn) (plate: M 15-16) -0.354
COc1cc(OC)c(C(C)=O)c(O)c1C (plate: M 15-16) 0.388
Cc1onc(-c2c(Cl)cccc2Cl)c1C(=O)N[C@@H]1C(=O)N2[C@@H]1SC(C)(C)[C@@H]2C(=O)O (plate: M 1-2) 0.412
CCOC(=O)[C@H](CCc1ccccc1)N[C@@H](C)C(=O)N1Cc2ccccc2C[C@H]1C(=O)O (plate: M 7-8) -0.192
O=C(O)c1cccc(O)c1O (plate: M 17-18) 0.34
CC(CCc1ccccc1)NCC(O)c1ccc(O)c(C(N)=O)c1 (stereo not drawn) (plate: M 7-8) -0.387
COc1ccc(C(Cl)=C(c2ccc(OC)cc2)c2ccc(OC)cc2)cc1 (plate: M 1-2) -0.219
CCCCCCc1ccc(O)cc1O.Nc1c2ccccc2nc2ccccc12 (plate: M 9-10) -0.393
COC(=O)Nc1nc2cc(C(=O)c3ccccc3)ccc2[nH]1 (plate: M 7-8) 0.02
CCCCCCCCCc1ccc(OCCOCCOCCOCCOCCOCCOCCOCCOCCO)cc1 (plate: M 9-10) -1.22
NC(=O)c1cc[n+](CC2=C(C(=O)O)N3C(=O)[C@@H](NC(=O)[C@@H](c4ccccc4)S(=O)(=O)[O-])[C@H]3SC2)cc1 (plate: M 7-8) -0.00991
CC1(C)S[C@@H]2[C@H](NC(=O)[C@H](NC(=O)N3CCNC3=O)c3ccccc3)C(=O)N2[C@H]1C(=O)O (plate: M 7-8) 0.0133
COc1c(-c2coc3cc4c(cc3c2=O)CC(OC(C)=O)C(C)(C)O4)ccc2c1C=CC(C)(C)O2 (stereo not drawn) (plate: M 21-22) 0.117
CC1(C)CC[C@]2(C)CC[C@]3(C)C(=CC[C@@H]4[C@@]5(C)CC[C@H](O)C(C)(C)[C@@H]5CC[C@]43C)[C@@H]2C1 [beta-AMYRIN] (plate: M 13-14) 0.612
CN(C(=O)C(Cl)Cl)c1ccc(OC(=O)c2ccco2)cc1 (plate: M 11-12) -0.0875
Oc1cc(O)c2c(c1)O[C@H](c1cc(O)c(O)c(O)c1)[C@H](O)C2 (plate: M 15-16) 0.416
Oc1c(I)cc(Cl)c2cccnc12 (plate: M 9-10) -0.873
C[C@H]1[C@H](C)CC[C@]2(CO)CC[C@]3(C)C(=CC[C@@H]4[C@@]5(C)CC[C@H](O)C(C)(C)[C@@H]5CC[C@]43C)[C@H]12 (plate: M 19-20) 0.169
C=CC(C1=CC(=O)C(OC)=CC1=O)c1ccc(OC)cc1 (stereo not drawn) (plate: M 15-16) -0.116
COc1ccc(-c2cc(=O)c3cc(OC)ccc3o2)cc1 (plate: M 17-18) -0.0532
CN(C)CCOC(C)(c1ccccc1)c1ccccn1 (stereo not drawn) (plate: M 3-4) -0.12
CC(=O)c1ccc2c(c1)N(CCCN(C)C)c1ccccc1S2 (plate: M 11-12) -0.872
O=c1cc(-c2ccc(O)cc2)oc2ccc(O)cc12 (plate: M 17-18) 0.297
CC(=O)NS(=O)(=O)c1ccc(NC(=O)c2ccccc2C(=O)O)cc1 (plate: M 11-12) 0.379
O=C(CCc1ccc(O)cc1)c1c(O)cc(O)cc1O (plate: M 17-18) -0.4
CC[C@H](C)[C@H](N)C1=N[C@H](C(=O)N[C@@H](CC(C)C)C(=O)N[C@H](CCC(=O)O)C(=O)N[C@H](C(=O)N[C@H]2CCCCNC(=O)[C@H](CC(N)=O)NC(=O)[C@@H](CC(=O)O)NC(=O)[C@H](Cc3cnc[nH]3)NC(=O)[C@@H](Cc3ccccc3)NC(=O)[C@H]([C@@H](C)CC)NC(=O)[C@@H](CCCN)NC2=O)[C@@H](C)CC)CS1 (plate: M 1-2) ({Ileψ(thiazoline)Cys}-L[dE]IK[dOrn]I[dF]H[dD]N; lactam 4-C) -0.81
CC(=O)C1=C(O)C=C2Oc3c(C(C)=O)c(O)c(C)c(O)c3[C@]2(C)C1=O (plate: M 17-18) 0.406
COC(=O)C[C@H]1C(C)(C)C2(O)OC34CC2C(=O)[C@]1(C)C3CC[C@]1(C)C4=CC(=O)O[C@H]1c1ccoc1 (stereo partly drawn) [8beta-HYDROXYCARAPIN,3,8-HEMIACETAL] (plate: M 13-14) -0.127
CNC[C@H](O)c1ccc(O)c(O)c1 (plate: M 3-4) 0.606
C=CC(C)(O)CCC1C(=C)CC(OC(C)=O)C2C(C)(C)CCCC12C (stereo not drawn) (plate: M 17-18) -0.112
CN1CCN(CCCN2c3ccccc3Sc3ccc(C(F)(F)F)cc32)CC1 (plate: M 5-6) -0.199
COc1ccc(OC)c(C(O)CNC(=O)CN)c1 (stereo not drawn) (plate: M 9-10) 0.402
C=C1c2c(Cl)ccc(O)c2C(=O)C2=C(O)[C@]3(O)C(=O)C(C(N)=O)=C(O)[C@@H](N(C)C)[C@@H]3[C@@H](O)[C@H]12.O=C(O)c1cc(S(=O)(=O)O)ccc1O (plate: M 7-8) -0.233
COc1ccc2c(c1OC)C(=O)O[C@@H]2[C@H]1c2c(cc3c(c2OC)OCO3)CCN1C (plate: M 3-4) 0.172
CC(=O)NCCCS(=O)(=O)O (plate: M 11-12) 0.233
O=C1C=C(O)C(=O)c2ccccc21 (plate: M 19-20) 0.531
O=C(C1CCCCC1)N1CC(=O)N2CCc3ccccc3C2C1 (stereo not drawn) (plate: M 5-6) 0.333
COc1ccc(-c2cc(=O)c3c(O)c(OC)c(O[C@@H]4O[C@H](CO[C@@H]5O[C@@H](C)[C@H](O)[C@@H](O)[C@H]5O)[C@@H](O)[C@H](O)[C@H]4O)cc3o2)cc1 (plate: M 15-16) -0.774
Cn1c(=O)[nH]c(=O)c2[nH]cnc21 (plate: M 23-24) 0.218
COc1ccc2c(c1)c(CC(=O)O)c(C)n2C(=O)c1ccc(Cl)cc1 (plate: M 3-4) 0.18
Nc1nc2ccc(OC(F)(F)F)cc2s1 (plate: M 11-12) -0.124
O=C(O)[C@@H](O)[C@H](O)[C@H](O)[C@@H](O)C(=O)O (plate: M 21-22) 0.432
OC[C@H]1O[C@H](O[C@]2(CCl)O[C@H](CCl)[C@@H](O)[C@@H]2O)[C@H](O)[C@@H](O)[C@H]1Cl (plate: M 11-12) -0.453
O=C(OCC(O)CO)c1ccccc1Nc1ccnc2cc(Cl)ccc12 (stereo not drawn) (plate: M 23-24) 0.0566
Cc1cc(O)c2c(c1)C(=O)c1cccc(O)c1C2=O (plate: M 21-22) 0.204
CC(C(=O)O)c1ccc(-c2ccccc2)c(F)c1 (stereo not drawn) (plate: M 3-4) -0.0795
CC(=O)OC1CCC2(C)C(=CCC3C2CCC2(C)C(C(C)CCCC(C)C)CCC32)C1 (stereo not drawn) (plate: M 21-22) 0.537

3 entries drawn at random from the list so far:
Tryptophan fluorescence intensity z-score, inactive:
CCOC(=O)[C@H](CCc1ccccc1)N[C@@H](C)C(=O)N1Cc2ccccc2C[C@H]1C(=O)O (plate: M 7-8) -0.192
COc1ccc2c(c1OC)C(=O)O[C@@H]2[C@H]1c2c(cc3c(c2OC)OCO3)CCN1C (plate: M 3-4) 0.172
CNC[C@H](O)c1ccc(O)c(O)c1 (plate: M 3-4) 0.606
